In PMC6430605:
Results are given in words; binding and its absence hold for the method and conditions named. In cells and extracts the contact can be indirect. A result given as binding can be weak or reduced; the word gives no strength.

Sequences of proteins named here, by UniProt entry; tags and fusion partners are left off. A change or cut given only in a name is not applied to a line headed by its entry.
UniProt Q7KJM7: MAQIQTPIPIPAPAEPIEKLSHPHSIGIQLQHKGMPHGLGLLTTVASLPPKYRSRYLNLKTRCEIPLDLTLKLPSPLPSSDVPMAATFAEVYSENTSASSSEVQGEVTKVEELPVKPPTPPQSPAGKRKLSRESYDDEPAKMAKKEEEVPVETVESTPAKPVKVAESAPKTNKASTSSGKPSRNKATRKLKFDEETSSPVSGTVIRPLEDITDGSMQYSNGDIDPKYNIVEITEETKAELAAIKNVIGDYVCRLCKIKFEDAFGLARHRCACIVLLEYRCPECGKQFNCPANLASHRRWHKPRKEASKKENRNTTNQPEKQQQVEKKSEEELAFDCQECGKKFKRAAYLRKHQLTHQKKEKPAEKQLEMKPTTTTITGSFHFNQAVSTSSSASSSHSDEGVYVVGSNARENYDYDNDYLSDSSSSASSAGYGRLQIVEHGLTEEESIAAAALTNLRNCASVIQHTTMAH
UniProt P30052: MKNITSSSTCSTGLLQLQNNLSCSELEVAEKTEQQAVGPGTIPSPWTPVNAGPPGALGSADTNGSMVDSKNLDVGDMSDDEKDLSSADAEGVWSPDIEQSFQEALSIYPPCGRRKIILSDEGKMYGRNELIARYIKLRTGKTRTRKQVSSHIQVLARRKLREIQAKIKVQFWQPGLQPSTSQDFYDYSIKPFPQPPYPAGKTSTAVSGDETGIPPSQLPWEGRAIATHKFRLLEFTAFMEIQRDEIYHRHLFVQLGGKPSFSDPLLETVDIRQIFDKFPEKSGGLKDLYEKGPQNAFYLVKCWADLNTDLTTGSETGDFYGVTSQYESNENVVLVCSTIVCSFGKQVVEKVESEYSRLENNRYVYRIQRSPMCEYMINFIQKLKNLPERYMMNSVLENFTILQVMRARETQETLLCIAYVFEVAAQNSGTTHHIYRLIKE
UniProt Q94517: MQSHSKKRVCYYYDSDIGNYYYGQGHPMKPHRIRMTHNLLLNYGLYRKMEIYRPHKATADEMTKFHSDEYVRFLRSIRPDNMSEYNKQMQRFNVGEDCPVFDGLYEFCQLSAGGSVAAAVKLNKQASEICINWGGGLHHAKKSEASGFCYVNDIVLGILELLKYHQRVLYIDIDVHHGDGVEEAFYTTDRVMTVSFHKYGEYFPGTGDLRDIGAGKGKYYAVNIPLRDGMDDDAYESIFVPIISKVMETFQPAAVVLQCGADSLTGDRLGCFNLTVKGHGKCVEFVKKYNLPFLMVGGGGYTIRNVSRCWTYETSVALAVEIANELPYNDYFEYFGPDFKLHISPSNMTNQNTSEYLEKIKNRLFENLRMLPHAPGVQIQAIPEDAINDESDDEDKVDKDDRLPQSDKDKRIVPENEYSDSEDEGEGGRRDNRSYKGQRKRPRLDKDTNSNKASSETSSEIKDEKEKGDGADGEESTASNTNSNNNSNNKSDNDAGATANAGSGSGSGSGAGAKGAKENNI
UniProt O46036: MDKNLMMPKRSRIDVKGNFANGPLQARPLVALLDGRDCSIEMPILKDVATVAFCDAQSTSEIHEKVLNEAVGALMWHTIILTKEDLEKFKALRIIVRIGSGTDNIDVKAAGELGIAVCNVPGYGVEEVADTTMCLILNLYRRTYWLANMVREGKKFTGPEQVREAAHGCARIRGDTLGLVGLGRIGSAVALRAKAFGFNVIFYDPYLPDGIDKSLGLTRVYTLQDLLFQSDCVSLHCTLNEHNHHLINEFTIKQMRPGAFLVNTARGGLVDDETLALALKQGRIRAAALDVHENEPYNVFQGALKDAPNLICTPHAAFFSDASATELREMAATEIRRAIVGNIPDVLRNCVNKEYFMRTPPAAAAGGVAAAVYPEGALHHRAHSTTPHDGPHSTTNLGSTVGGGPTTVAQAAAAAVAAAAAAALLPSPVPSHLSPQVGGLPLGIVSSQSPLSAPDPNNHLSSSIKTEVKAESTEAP

Target: FLAG-Nerfin-1 (Drosophila) (UniProt Q7KJM7)
Experiment: co-IP; Drosophila S2R+ cells transfected with epitope-tagged constructs, IP by anti-FLAG

Row | binding | Substance
1 | no binding | Sd^L130G (from UniProt P30052 1-440)
2 | binds | Rpd3 (epitope-tagged) (from UniProt Q94517 1-521) (enzyme)
3 | binds | CtBP (epitope-tagged) (from UniProt O46036 1-476)
4 | binds | Myc-Sd (from UniProt P30052 1-440)
5 | no binding | Sd^Y108A (from UniProt P30052)
6 | binds | Sd^R157A (from UniProt P30052 1-440)
7 | binds | Sd^D120N/E121N (from UniProt P30052 1-440)
8 | binds | Sd^Q153A (from UniProt P30052 1-440)
